These results are taken from PMC5893762.

No constants are given. Whether binding was seen depends on the method and setting. In cells and extracts the contact can be indirect. Tags and fused reporters may be left off the sequences shown.

This assay concerns the target HA-MGA_0676^ΔSNC (Mycoplasma gallisepticum (strain BJ44T)). Description: co-IP; HEK293T cells co-transfected with HA and Myc plasmids, 24 h; non-denaturing lysate; IP with anti-HA antibody and protein A/G agarose; blot with anti-HA or anti-Myc.

B1: Myc-NAE (NEDD8-activating enzyme E1 regulatory subunit, expressed in HEK293T cells) (protein, UniProt Q5ZIE6 1-535)
chain: MAQPGRASLKEQRYDRQLRLWGDHGQEALESAHVCVINATATGTEILKNLVLPGIGSFTIVDGNRVSGEDVGNNFFLQKSHIGQSRAQSATELLQELNNDVSGNFVEESPETLLDNDPSFFNRFNLVVATQLSESTVLRLAELLWNSNIPLLICRTYGLVGYMRIIIKEHPVVESHPDNALEDLRLDKQFPELTEHIQSYDLDHMDKKDHSHTPWIVIVAKYLTKWFNEKSDQLPKSYKEKEAFRQLIRQGILKNENGTPEDEENFEEAIKNVNTALNTTKIPRCIEEIFNDDCCVNLTEQSPSFWILVRAVKEFVANEGQGCLPVRGTIPDMIADSSKFIKLQNVYREKAKRDIAAVGNHAAKLLQSLGKAPESISERELKLLCSNSAFLRVVRCRSLSEEYGLNTFNKDEIISNMDNPDSEVVLYLMLRAVDRFYKQHGRYPGVYNYQVEDDIGKLKSCLTSFLQEHGLSVLVKDDYVHEFCRYGAAEPHAIAAFMGGAAAQEIIKVITGQFVIFNNTYIYSGMSQTSATFQL
Take B1: the binding result is “no binding”.
